This note sets out measurements from article PMC9334759.

Protein sequences, listed by entry. Tags and fused reporters are not part of them. Lines headed by an entry give the natural chain unless they say otherwise; changes in a name come on top.
UniProt P78552: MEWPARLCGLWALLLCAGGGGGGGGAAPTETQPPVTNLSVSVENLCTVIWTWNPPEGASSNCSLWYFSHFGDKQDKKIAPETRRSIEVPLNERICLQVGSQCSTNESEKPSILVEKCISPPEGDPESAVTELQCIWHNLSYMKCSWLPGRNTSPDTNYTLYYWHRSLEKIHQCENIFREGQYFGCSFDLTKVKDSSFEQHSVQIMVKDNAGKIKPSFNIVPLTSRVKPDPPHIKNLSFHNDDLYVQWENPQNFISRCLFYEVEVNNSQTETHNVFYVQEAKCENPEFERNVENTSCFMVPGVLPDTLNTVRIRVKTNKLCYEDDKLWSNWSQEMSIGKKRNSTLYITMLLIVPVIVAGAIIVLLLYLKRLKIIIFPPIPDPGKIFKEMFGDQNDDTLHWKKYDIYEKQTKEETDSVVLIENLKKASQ
UniProt Q15386: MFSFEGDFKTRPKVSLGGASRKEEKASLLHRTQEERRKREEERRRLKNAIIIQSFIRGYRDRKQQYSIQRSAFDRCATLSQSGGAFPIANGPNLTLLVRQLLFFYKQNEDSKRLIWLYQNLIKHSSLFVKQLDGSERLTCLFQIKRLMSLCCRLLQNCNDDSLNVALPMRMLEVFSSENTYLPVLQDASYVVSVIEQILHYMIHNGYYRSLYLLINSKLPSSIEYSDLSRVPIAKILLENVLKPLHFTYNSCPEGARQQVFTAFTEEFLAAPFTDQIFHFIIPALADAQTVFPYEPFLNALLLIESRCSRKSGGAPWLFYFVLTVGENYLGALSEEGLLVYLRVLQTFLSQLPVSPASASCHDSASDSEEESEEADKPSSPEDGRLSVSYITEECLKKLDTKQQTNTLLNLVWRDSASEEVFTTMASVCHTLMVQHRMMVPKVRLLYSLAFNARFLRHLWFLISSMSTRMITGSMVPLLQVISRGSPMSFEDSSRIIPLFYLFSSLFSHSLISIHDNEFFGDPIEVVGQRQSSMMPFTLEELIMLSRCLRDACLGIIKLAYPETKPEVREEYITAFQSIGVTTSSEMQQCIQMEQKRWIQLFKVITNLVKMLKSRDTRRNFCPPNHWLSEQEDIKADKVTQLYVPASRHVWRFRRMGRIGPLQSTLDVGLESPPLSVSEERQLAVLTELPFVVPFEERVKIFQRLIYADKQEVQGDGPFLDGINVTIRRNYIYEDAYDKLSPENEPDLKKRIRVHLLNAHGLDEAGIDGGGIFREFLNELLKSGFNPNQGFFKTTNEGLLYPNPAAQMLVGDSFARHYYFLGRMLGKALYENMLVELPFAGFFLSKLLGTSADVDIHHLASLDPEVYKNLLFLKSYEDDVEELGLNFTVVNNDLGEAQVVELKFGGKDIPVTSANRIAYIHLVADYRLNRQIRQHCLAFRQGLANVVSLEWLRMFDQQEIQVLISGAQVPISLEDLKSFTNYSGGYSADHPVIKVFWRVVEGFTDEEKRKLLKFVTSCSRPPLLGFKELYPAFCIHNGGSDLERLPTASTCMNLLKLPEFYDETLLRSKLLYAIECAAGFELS

Where two headings read alike, the source gives them in different places. These are yes or no findings as the source states them, for the method shown. In cells and extracts the contact can be indirect. A yes stands for co-enrichment or nearness to the bait. Other partners may have been found.

Experiment [1] has as its target GST-tagged IL13Rα1 (human) (UniProt P78552). In words: affinity purification with mass spectrometry; GST-IL13Rα1 (500 µg) on Glutathione-Sepharose 4B beads incubated with whole cell lysates of LNCaP cells at 4 °C overnight; bound proteins separated by SDS-PAGE and identified by MS; only the target purified.
Experiment [2] shares this target. The experiment is described as above. The source holds these as a separate data set.

For “ubiquitin protein ligase E3C (endogenous, LNCaP) (from UniProt Q15386 1-1083) (enzyme)”, the binding entry in experiment [1] is given as “binds”.

B1: hexokinase 2 (endogenous, LNCaP) (enzyme, UniProt P52789 1-917)
chain: MIASHLLAYFFTELNHDQVQKVDQYLYHMRLSDETLLEISKRFRKEMEKGLGATTHPTAAVKMLPTFVRSTPDGTEHGEFLALDLGGTNFRVLWVKVTDNGLQKVEMENQIYAIPEDIMRGSGTQLFDHIAECLANFMDKLQIKDKKLPLGFTFSFPCHQTKLDESFLVSWTKGFKSSGVEGRDVVALIRKAIQRRGDFDIDIVAVVNDTVGTMMTCGYDDHNCEIGLIVGTGSNACYMEEMRHIDMVEGDEGRMCINMEWGAFGDDGSLNDIRTEFDQEIDMGSLNPGKQLFEKMISGMYMGELVRLILVKMAKEELLFGGKLSPELLNTGRFETKDISDIEGEKDGIRKAREVLMRLGLDPTQEDCVATHRICQIVSTRSASLCAATLAAVLQRIKENKGEERLRSTIGVDGSVYKKHPHFAKRLHKTVRRLVPGCDVRFLRSEDGSGKGAAMVTAVAYRLADQHRARQKTLEHLQLSHDQLLEVKRRMKVEMERGLSKETHASAPVKMLPTYVCATPDGTEKGDFLALDLGGTNFRVLLVRVRNGKWGGVEMHNKIYAIPQEVMHGTGDELFDHIVQCIADFLEYMGMKGVSLPLGFTFSFPCQQNSLDESILLKWTKGFKASGCEGEDVVTLLKEAIHRREEFDLDVVAVVNDTVGTMMTCGFEDPHCEVGLIVGTGSNACYMEEMRNVELVEGEEGRMCVNMEWGAFGDNGCLDDFRTEFDVAVDELSLNPGKQRFEKMISGMYLGEIVRNILIDFTKRGLLFRGRISERLKTRGIFETKFLSQIESDCLALLQVRAILQHLGLESTCDDSIIVKEVCTVVARRAAQLCGAGMAAVVDRIRENRGLDALKVTVGVDGTLYKLHPHFAKVMHETVKDLAPKCDVSFLQSEDGSGKGAALITAVACRIREAGQR
As to B1, the binding entry in experiment [2] is on record as “binds”.
